{"source": "paper PMC11362043", "target": "T1, FtsH5 (Arabidopsis thaliana (endogenous in leaf chloroplast isolate)) (UniProt Q9FH02)", "T1 sequence": "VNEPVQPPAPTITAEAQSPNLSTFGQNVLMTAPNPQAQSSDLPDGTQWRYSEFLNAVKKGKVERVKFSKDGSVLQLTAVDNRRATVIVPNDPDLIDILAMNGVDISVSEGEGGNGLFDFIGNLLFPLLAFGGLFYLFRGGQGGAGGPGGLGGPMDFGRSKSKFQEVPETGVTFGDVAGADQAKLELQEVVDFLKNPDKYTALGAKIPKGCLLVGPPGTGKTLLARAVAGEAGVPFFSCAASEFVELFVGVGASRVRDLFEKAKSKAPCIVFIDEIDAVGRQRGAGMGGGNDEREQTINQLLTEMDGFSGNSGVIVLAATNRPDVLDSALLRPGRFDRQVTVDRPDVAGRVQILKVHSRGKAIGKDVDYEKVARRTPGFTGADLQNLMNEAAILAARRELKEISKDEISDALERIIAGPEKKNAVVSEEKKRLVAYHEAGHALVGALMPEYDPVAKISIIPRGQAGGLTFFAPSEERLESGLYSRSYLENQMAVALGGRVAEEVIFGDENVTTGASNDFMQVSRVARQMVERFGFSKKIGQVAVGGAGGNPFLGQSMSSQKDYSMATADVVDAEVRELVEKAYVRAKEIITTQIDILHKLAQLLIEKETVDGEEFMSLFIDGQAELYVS", "test": "cross-linking; 1 mM DSBU (MS-cleavable) directly after cell disruption and again after chloroplast isolation; 1% SDS; lpBN-PAGE fractions digested with trypsin; interlinks identified by MS (MaxLynx); plants acclimated to LL, GL, EL or HL (20, 120, 600, 1000 µmol m^-2 s^-1)", "note": "Results are given in words; binding and its absence hold for the method and conditions named. Binding seen in cells or lysates may run through a third protein.", "data": [{"substance": "FtsH5 interacting protein (FIP5)", "values": [{"measurement": "binding", "result": "no binding"}]}]}
